In the supplement of paper PMC10849652:
The list shows a part of the results.

Chains of the proteins cited; added tags and fusions are not shown. Lines headed by an entry give the natural chain unless they say otherwise; changes in a name come on top.
UniProt Q3SXM5: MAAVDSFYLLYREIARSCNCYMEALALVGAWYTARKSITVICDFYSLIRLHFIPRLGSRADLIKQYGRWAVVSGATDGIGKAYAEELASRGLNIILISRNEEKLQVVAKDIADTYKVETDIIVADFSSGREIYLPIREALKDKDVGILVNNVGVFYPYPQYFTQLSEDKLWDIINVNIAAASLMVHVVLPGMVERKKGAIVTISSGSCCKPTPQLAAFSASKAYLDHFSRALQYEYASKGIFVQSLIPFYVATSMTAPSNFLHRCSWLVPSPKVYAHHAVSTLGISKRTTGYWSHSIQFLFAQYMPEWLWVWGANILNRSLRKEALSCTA
UniProt O43390: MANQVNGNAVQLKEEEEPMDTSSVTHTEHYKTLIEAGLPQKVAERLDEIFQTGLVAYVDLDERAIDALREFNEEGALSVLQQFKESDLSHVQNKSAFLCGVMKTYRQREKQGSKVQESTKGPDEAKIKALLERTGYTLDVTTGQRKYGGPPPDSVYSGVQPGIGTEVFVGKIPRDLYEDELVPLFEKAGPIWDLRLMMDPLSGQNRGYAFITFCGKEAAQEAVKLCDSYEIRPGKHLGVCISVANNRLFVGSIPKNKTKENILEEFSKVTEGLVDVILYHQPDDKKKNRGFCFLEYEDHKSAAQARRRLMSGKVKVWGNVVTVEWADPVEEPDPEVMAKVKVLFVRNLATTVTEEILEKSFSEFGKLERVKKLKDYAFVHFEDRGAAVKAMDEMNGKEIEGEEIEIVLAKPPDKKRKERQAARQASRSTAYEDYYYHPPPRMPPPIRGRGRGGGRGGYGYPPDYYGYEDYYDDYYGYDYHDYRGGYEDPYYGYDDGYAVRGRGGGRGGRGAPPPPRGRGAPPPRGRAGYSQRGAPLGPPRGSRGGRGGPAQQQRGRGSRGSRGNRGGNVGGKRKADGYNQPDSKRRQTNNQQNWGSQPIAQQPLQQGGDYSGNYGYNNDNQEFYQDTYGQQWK
UniProt Q8TCT9: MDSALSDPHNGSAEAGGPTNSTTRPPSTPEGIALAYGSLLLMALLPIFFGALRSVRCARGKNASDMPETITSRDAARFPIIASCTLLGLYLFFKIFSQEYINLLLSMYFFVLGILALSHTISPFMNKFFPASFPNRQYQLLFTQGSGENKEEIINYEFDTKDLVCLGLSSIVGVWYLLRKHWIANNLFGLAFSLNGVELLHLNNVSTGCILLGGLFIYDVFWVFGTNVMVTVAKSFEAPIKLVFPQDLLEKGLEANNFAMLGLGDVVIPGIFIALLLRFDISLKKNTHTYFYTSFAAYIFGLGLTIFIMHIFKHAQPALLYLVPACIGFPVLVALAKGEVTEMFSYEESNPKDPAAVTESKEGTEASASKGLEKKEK
UniProt Q9NRV9: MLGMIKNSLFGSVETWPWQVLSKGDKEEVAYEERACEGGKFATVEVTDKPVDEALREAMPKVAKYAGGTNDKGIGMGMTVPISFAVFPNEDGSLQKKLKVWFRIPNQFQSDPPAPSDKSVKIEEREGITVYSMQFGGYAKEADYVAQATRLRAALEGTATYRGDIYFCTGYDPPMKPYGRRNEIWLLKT
UniProt P51991: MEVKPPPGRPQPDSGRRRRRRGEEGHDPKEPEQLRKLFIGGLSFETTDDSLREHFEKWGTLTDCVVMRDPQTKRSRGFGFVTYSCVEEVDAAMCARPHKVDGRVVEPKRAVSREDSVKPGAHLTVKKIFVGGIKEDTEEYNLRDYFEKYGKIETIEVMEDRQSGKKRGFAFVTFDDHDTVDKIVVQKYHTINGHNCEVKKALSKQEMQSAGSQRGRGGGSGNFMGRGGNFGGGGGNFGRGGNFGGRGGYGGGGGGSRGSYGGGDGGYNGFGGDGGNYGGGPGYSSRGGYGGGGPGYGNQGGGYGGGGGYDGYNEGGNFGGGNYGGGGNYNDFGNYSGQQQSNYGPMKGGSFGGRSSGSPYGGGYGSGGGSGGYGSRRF
UniProt Q01581: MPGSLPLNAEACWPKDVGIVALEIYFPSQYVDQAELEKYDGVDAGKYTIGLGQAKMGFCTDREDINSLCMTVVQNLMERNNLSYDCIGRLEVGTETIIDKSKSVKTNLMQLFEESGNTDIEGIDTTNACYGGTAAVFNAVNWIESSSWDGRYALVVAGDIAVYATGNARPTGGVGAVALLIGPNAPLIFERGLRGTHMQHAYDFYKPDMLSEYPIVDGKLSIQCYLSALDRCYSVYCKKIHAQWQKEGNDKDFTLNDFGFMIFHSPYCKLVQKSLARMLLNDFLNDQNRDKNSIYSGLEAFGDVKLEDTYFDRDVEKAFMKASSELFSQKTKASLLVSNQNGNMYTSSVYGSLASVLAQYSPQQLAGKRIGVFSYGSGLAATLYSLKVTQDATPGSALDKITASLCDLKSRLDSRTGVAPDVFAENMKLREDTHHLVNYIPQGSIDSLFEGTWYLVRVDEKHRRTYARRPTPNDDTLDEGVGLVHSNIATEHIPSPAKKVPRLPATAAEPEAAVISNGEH
UniProt Q6NVY1: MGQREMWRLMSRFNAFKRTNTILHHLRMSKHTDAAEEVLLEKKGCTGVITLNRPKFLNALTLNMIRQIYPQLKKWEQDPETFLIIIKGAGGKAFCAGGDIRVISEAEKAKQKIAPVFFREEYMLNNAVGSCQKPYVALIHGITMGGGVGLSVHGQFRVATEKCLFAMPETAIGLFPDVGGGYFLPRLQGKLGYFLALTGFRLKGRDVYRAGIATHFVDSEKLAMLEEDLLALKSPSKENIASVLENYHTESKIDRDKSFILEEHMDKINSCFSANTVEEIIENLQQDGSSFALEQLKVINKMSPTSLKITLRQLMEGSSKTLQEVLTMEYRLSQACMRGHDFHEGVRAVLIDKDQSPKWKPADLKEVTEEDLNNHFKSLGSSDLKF
UniProt O00291: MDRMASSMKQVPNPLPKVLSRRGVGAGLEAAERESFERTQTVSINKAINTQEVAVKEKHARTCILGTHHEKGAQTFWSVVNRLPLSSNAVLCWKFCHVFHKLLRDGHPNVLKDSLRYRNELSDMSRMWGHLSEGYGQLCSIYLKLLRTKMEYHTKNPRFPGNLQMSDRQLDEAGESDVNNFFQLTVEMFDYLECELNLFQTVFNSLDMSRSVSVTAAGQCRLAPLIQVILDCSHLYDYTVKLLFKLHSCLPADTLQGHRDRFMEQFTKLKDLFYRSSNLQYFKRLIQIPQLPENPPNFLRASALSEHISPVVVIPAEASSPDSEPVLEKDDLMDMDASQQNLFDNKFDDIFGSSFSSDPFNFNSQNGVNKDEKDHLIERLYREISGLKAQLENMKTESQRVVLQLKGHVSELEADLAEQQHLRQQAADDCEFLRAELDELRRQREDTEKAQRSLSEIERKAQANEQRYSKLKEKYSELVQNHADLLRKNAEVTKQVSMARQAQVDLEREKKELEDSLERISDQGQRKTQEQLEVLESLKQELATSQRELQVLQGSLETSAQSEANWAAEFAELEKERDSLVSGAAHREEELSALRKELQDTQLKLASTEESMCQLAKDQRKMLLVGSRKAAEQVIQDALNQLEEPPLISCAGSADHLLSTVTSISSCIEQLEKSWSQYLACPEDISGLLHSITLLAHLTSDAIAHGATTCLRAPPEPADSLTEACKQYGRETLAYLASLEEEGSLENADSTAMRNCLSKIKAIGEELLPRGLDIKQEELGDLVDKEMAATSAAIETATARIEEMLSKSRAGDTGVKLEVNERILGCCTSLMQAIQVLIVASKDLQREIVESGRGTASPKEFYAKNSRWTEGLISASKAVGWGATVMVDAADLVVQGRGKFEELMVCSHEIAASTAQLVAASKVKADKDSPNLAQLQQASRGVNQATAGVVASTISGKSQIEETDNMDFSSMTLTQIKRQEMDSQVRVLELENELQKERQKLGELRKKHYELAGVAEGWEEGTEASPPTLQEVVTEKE
UniProt Q6YN16: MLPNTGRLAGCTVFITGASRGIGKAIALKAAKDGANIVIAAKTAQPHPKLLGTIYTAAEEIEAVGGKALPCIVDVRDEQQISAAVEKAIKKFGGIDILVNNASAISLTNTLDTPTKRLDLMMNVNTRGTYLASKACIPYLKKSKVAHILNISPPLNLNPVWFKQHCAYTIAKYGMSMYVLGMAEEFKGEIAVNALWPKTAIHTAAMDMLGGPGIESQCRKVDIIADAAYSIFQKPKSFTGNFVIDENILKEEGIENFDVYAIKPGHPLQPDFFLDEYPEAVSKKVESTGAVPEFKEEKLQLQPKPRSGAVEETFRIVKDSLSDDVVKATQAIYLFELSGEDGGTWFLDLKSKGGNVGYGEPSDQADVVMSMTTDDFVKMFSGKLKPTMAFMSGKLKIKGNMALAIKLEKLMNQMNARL
UniProt P06865: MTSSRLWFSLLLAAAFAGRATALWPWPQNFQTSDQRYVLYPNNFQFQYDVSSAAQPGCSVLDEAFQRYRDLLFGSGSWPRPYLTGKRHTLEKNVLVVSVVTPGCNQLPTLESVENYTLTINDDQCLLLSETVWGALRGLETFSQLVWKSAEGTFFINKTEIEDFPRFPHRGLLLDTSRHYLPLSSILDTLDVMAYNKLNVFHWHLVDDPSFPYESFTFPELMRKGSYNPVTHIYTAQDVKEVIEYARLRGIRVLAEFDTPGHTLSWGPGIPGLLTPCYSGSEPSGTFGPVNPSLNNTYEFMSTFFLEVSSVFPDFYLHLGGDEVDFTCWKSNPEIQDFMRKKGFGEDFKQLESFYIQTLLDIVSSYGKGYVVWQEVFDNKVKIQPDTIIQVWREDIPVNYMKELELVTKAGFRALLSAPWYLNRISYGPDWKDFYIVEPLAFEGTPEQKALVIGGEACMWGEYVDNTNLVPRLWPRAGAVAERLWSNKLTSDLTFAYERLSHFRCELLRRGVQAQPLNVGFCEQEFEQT
UniProt P82970: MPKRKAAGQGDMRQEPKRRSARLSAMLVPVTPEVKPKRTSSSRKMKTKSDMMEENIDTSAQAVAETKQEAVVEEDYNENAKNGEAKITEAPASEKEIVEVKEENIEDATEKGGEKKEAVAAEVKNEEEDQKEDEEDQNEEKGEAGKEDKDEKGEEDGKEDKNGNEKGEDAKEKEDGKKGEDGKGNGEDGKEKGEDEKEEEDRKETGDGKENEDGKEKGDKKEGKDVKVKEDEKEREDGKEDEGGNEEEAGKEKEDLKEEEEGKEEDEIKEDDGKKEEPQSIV
UniProt P14866: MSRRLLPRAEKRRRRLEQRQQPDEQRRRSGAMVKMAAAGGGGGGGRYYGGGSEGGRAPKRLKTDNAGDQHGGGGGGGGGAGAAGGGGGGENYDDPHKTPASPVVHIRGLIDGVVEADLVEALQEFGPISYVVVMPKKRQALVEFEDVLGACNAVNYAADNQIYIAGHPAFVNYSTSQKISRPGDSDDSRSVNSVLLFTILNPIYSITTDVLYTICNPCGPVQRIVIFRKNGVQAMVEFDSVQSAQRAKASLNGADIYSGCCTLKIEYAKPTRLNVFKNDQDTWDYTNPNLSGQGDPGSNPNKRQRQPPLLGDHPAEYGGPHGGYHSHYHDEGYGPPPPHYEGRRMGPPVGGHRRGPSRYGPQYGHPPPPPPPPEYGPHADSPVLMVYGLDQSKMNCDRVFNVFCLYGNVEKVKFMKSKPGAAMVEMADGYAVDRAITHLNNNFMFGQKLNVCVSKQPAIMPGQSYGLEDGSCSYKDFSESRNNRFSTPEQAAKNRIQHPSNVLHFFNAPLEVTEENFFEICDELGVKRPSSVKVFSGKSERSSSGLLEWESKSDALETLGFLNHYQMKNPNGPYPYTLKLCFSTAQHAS
UniProt Q58FF7, whole entry, looked up: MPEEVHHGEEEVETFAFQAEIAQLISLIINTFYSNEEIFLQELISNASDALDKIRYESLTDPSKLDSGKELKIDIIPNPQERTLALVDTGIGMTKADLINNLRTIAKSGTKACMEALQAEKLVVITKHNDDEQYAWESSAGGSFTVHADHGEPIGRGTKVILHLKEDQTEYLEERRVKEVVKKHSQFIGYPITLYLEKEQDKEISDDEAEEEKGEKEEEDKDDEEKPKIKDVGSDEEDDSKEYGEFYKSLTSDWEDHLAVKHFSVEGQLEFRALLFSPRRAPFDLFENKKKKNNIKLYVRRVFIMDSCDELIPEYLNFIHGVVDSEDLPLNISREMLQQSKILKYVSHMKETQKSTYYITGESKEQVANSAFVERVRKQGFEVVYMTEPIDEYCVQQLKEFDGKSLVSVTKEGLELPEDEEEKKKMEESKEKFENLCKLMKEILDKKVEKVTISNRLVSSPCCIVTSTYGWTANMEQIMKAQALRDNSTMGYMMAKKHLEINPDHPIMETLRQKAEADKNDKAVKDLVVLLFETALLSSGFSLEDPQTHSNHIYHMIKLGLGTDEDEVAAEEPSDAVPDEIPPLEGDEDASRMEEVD

What was measured:
Test in all cases: log2 fold change, soluble protein after heating vs DMSO (PISA); higher = thermal stabilisation; K562 lysate, 10 uM; active = over 0.2 and 3.5 SD of the protein, either way, in both replicates (recomputed)
erlotinib = compound: C#Cc1cccc(Nc2ncnc3cc(OCCOC)c(OCCOC)cc23)c1 [erlotinib]
In short: (§1)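 Log-two fold change in thermal stability relative to solvent controls is reported from duplicates. For each sample, crude K562 extract from dounce-homogenised pellets in PBS pH 7.4 with 1 mM MgCl2, at 1 mg/mL protein, was treated with 10 μM compound for 30 min. Aliquots heated for 3 min across 48°C-58°C were pooled, brought to 0.5% NP-40 at 4°C and cleared at 21,000xg for 90 min. The supernatant was quantified by TMTpro 16plex LC-MS/MS with channel sums equalised.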

[1] = compound: C/C(=N\NC(=O)C1=CC(=CC=C1)S(=O)(=O)N2CCOCC2)/C3=C(C=CC(=C3)Cl)O
In short: as §1

[2] = compound: C1=CC(=CC=C1C2=NC3=C(N2)C=C(C=C3)C(=O)N)OC4=CC=C(C=C4)Cl
In short: as §1

[3] = compound: C1=CC2=C(C=CC(=C2)/C=C\3/C(=O)NC(=NCC4=CC=CS4)S3)N=C1
In short: as §1

[4] = compound: C1=CC2=NC=CN=C2C=C1/C=C/3\C(=O)NC(=O)S3
In short: as §1

[5] = compound: C1=CC=C(C=C1)C2=NC(=C(N2)C3=CC=NC=C3)C4=CC(=C(C=C4)Cl)O
In short: as §1

[6] = compound: C1=CC=C2C(=C1)C3=NNC4=CC=CC(=C43)C2=O
In short: as §1

[7] = compound: C1CCN(C1)C(=O)NC2=CC=CC(=C2)NC3=NC=C(C(=N3)NCCC4=CN=CN4)Br
In short: as §1

[8] = compound: C1CN(CCC1(CC2=CC=C(C=C2)Cl)N)C3=NC=NC4=C3C=CN4
In short: as §1

IRAK-1-4 Inhibitor I = compound: C1COCCN1CCN2C3=CC=CC=C3N=C2NC(=O)C4=CC(=CC=C4)[N+](=O)[O-] [IRAK-1-4 Inhibitor I]
In short: as §1

ibrutinib = compound: C=CC(=O)N1CCC[C@@H](n2nc(-c3ccc(Oc4ccccc4)cc3)c3c(N)ncnc32)C1 [ibrutinib]
In short: as §1

[9] = compound: CC(=O)c1cnc2ccc(-c3cc(Cl)c(O)c(Cl)c3)nc2c1N[C@H]1CC[C@H](CN(C)C)CC1
In short: as §1

ralimetinib = compound: CC(C)(C)Cn1c(N)nc2ccc(-c3[nH]c(C(C)(C)C)nc3-c3ccc(F)cc3)nc21 [ralimetinib]
In short: as §1

[10] = compound: CC(C)(O)CC(=O)NCCn1ccc2ncnc(Nc3ccc(Oc4cccc(C(F)(F)F)c4)c(Cl)c3)c21
In short: as §1

[11] = compound: CC(C)C1=C2N=C(C=C(N2N=C1)NCC3=CC=CC=C3)NCCCCCCN
In short: as §1

[12] = compound: CC1=C(C(CC(=O)N1)C2=CC=C(C=C2)C(F)(F)F)C(=O)NC3=C(C=C4C(=C3)C=NN4)F
In short: as §1

[13] = compound: CC1=C(C2=C(C=C1)C(=O)C3=CC=CC=C3N2CCCN)C
In short: as §1

[14] = compound: CC1=C(C=C(C=C1)NC(=O)C2=CC(=CC=C2)C(C)(C)C#N)NC3=CC4=C(C=C3)N=CN(C4=O)C
In short: as §1

[15] = compound: CC1=C(C=C(C=C1)NC(=O)C2=CC(=CC=C2)N(C)C)NC(=O)C3=CC=C(C=C3)O
In short: as §1

[16] = compound: CC1=CC=C(C=C1)SC2=C3C=C(SC3=CN=C2)C(=O)N
In short: as §1

Measured: log2 fold change

HMGN2 (UniProt P05204)
inactive: erlotinib -0.061 | [1] -0.044 | [2] 0.025 | [3] -0.043 | [4] -0.064 | [5] 0 | [6] 0.009 | [7] 0 | [8] 0.001 | IRAK-1-4 Inhibitor I -0.034 | ibrutinib -0.045 | [9] 0.021 | ralimetinib -0.034 | [10] -0.017 | [11] 0 | [12] -0.056 | [13] -0.014 | [14] -0.045 | [15] -0.021 | [16] -0.017

HSDL1 (UniProt Q3SXM5)
inactive: erlotinib -0.017 | [1] 0.002 | [2] 0 | [3] 0.021 | [4] -0.004 | [5] -0.018 | [6] -0.016 | [7] 0.006 | [8] 0.018 | IRAK-1-4 Inhibitor I 0.036 | ibrutinib -0.028 | [9] 0.006 | ralimetinib -0.021 | [10] -0.025 | [11] 0.011 | [12] 0.06 | [13] 0.002 | [14] 0.012 | [15] -0.011 | [16] 0.032

HNRNPR isoform 2 (UniProt O43390)
inactive: erlotinib 0.004 | [1] 0.023 | [2] -0.002 | [3] -0.004 | [4] -0.003 | [5] 0.009 | [6] 0.022 | [7] 0.007 | [8] -0.003 | IRAK-1-4 Inhibitor I -0.015 | ibrutinib -0.023 | [9] -0.198 | ralimetinib 0.01 | [10] -0.001 | [11] 0.004 | [12] 0.003 | [13] 0.001 | [14] -0.001 | [15] 0.006 | [16] 0.036

HIC2 (UniProt Q96JB3)
inactive: erlotinib 0.01 | [1] -0.005 | [2] -0.015 | [3] -0.006 | [4] 0.003 | [5] 0.026 | [6] -0.08 | [7] -0.01 | [8] 0.028 | IRAK-1-4 Inhibitor I 0.007 | ibrutinib 0.073 | [9] -0.027 | ralimetinib 0.001 | [10] -0.011 | [11] 0.06 | [12] -0.031 | [13] -0.029 | [14] 0.02 | [15] -0.006 | [16] -0.037

HM13 isoform 2 (UniProt Q8TCT9)
inactive: erlotinib -0.011 | [1] -0.013 | [2] 0.008 | [3] -0.005 | [4] 0.017 | [5] -0.004 | [6] -0.045 | [7] -0.009 | [8] 0 | IRAK-1-4 Inhibitor I 0.054 | ibrutinib 0.011 | [9] 0.009 | ralimetinib 0.05 | [10] -0.058 | [11] -0.028 | [12] -0.015 | [13] 0.009 | [14] 0.011 | [15] -0.025 | [16] -0.02

HEBP1 (UniProt Q9NRV9)
inactive: erlotinib -0.026 | [1] -0.143 | [2] 0.043 | [3] 0.035 | [4] -0.003 | [5] 0.018 | [6] 0.151 | [7] 0.013 | [8] 0.018 | IRAK-1-4 Inhibitor I 0.164 | ibrutinib 0.014 | [9] -0.011 | ralimetinib -0.033 | [10] -0.052 | [11] -0.086 | [12] -0.051 | [13] -0.045 | [14] -0.016 | [15] -0.022 | [16] -0.027

HNRNPA3 (UniProt P51991)
inactive: erlotinib 0.009 | [1] 0.013 | [2] -0.078 | [3] -0.002 | [4] 0.02 | [5] 0.036 | [6] 0.041 | [7] 0.077 | [8] 0 | IRAK-1-4 Inhibitor I -0.021 | ibrutinib -0.014 | [9] -0.027 | ralimetinib 0.009 | [10] 0.054 | [11] -0.016 | [12] -0.017 | [13] 0.049 | [14] -0.024 | [15] -0.026 | [16] 0.073

HMGCS1 (UniProt Q01581)
inactive: erlotinib -0.003 | [1] -0.035 | [2] 0.006 | [3] -0.001 | [4] -0.005 | [5] 0.014 | [6] 0.004 | [7] 0.003 | [8] 0.012 | IRAK-1-4 Inhibitor I -0.009 | ibrutinib -0.012 | [9] -0.006 | ralimetinib 0.012 | [10] -0.01 | [11] -0.001 | [12] -0.011 | [13] 0.013 | [14] -0.001 | [15] 0.006 | [16] 0.015

HIBCH (UniProt Q6NVY1)
inactive: erlotinib -0.024 | [1] -0.051 | [2] 0.037 | [3] -0.007 | [4] -0.006 | [5] 0.023 | [6] 0.018 | [7] -0.011 | [8] 0.023 | IRAK-1-4 Inhibitor I 0.017 | ibrutinib 0.008 | [9] 0.008 | ralimetinib 0 | [10] 0.001 | [11] -0.017 | [12] -0.004 | [13] 0.035 | [14] -0.019 | [15] -0.036 | [16] 0.023

HIP1 (UniProt O00291)
inactive: erlotinib 0.013 | [1] -0.008 | [2] 0.042 | [3] 0 | [4] -0.026 | [5] -0.017 | [6] -0.048 | [7] 0.018 | [8] 0.018 | IRAK-1-4 Inhibitor I 0.009 | ibrutinib 0.001 | [9] -0.007 | ralimetinib 0.029 | [10] -0.025 | [11] -0.006 | [12] 0.017 | [13] -0.003 | [14] 0.002 | [15] 0.019 | [16] -0.022

HNRNPUL1 (UniProt Q9BUJ2)
inactive: erlotinib -0.039 | [1] 0.011 | [2] 0.002 | [3] -0.016 | [4] -0.023 | [5] -0.045 | [6] 0.03 | [7] 0.01 | [8] -0.02 | IRAK-1-4 Inhibitor I -0.032 | ibrutinib 0.028 | [9] -0.13 | ralimetinib 0.017 | [10] -0.014 | [11] -0.019 | [12] 0 | [13] -0.012 | [15] 0 | [16] 0.007
active: [14] -0.275

HSDL2 (UniProt Q6YN16)
inactive: erlotinib -0.028 | [1] 0.034 | [2] -0.004 | [3] -0.018 | [4] 0.089 | [5] -0.019 | [6] -0.084 | [7] -0.066 | [8] 0.021 | IRAK-1-4 Inhibitor I -0.018 | ibrutinib 0.002 | [9] -0.007 | ralimetinib -0.032 | [10] -0.03 | [11] -0.015 | [12] 0.007 | [13] -0.038 | [14] 0.01 | [15] -0.015 | [16] -0.017

HEXA (UniProt P06865)
inactive: erlotinib -0.01 | [1] -0.026 | [2] 0 | [3] -0.013 | [4] -0.02 | [5] -0.003 | [6] 0 | [7] -0.004 | [8] 0.033 | IRAK-1-4 Inhibitor I 0.015 | ibrutinib -0.006 | [9] -0.006 | ralimetinib -0.013 | [10] -0.014 | [11] 0.007 | [12] 0.012 | [13] 0.001 | [14] 0.004 | [15] -0.011 | [16] 0.001

HMGN5 (UniProt P82970)
inactive: erlotinib 0.013 | [1] -0.122 | [2] 0.052 | [3] 0.021 | [4] -0.002 | [5] -0.013 | [6] 0.024 | [7] 0.067 | [8] 0.024 | IRAK-1-4 Inhibitor I 0.007 | ibrutinib -0.035 | [9] -0.012 | ralimetinib -0.064 | [10] -0.021 | [11] 0.006 | [12] -0.004 | [13] -0.035 | [14] -0.011 | [15] 0.036 | [16] -0.056

HNRNPL (UniProt P14866)
inactive: erlotinib 0.054 | [1] 0.073 | [2] 0.022 | [3] -0.007 | [4] 0.013 | [5] 0.033 | [6] -0.041 | [7] -0.017 | [8] -0.003 | IRAK-1-4 Inhibitor I 0.014 | ibrutinib -0.015 | [9] 0.012 | ralimetinib 0.047 | [10] 0.046 | [11] 0.051 | [12] 0 | [13] 0.021 | [14] 0.001 | [15] 0.058 | [16] 0.032

Reprinted from the entries so far (two entries):
HMGN5 (UniProt P82970)
inactive: erlotinib 0.013 | [1] -0.122 | [2] 0.052 | [3] 0.021 | [4] -0.002 | [5] -0.013 | [6] 0.024 | [7] 0.067 | [8] 0.024 | IRAK-1-4 Inhibitor I 0.007 | ibrutinib -0.035 | [9] -0.012 | ralimetinib -0.064 | [10] -0.021 | [11] 0.006 | [12] -0.004 | [13] -0.035 | [14] -0.011 | [15] 0.036 | [16] -0.056

HNRNPL (UniProt P14866)
inactive: erlotinib 0.054 | [1] 0.073 | [2] 0.022 | [3] -0.007 | [4] 0.013 | [5] 0.033 | [6] -0.041 | [7] -0.017 | [8] -0.003 | IRAK-1-4 Inhibitor I 0.014 | ibrutinib -0.015 | [9] 0.012 | ralimetinib 0.047 | [10] 0.046 | [11] 0.051 | [12] 0 | [13] 0.021 | [14] 0.001 | [15] 0.058 | [16] 0.032

Next entries.

HSP90AB3P (UniProt Q58FF7)
inactive: erlotinib -0.031 | [1] -0.011 | [2] -0.027 | [3] 0 | [4] -0.008 | [5] 0.018 | [6] 0.012 | [7] -0.062 | [8] 0 | IRAK-1-4 Inhibitor I 0.033 | ibrutinib 0.085 | [9] 0.023 | ralimetinib -0.013 | [10] -0.033 | [11] -0.052 | [12] 0.033 | [13] -0.052 | [14] 0.032 | [15] 0.023 | [16] -0.015
